Where two headings read alike, the source gives them in different places.
System: Escherichia coli K-12 AG100, AG112 and derived fluoroquinolone-resistant mutants (wild-type acrAB)
Conditions: for Accumulation of CIP into whole energized cells: 10 μM CIP; for CIP accumulation, % of wild-type: vs AG100

## O=C(O)c1cn(C2CC2)c2cc(N3CCNCC3)c(F)cc2c1=O [CIP, ciprofloxacin]
First step mutants 1-AG100 and 1′-AG112 vs AG100 and AG112
  CIP accumulated by energized cells and increase after deenergization, compared with parental strain: virtually identical
Strain 1′-AG112, energized
  Accumulation of CIP into whole energized cells: 57 pmol CIP/ODU600
  CIP accumulation, % of wild-type: 55 % of wild-type
Strain 2°-AG100, energized
  Accumulation of CIP into whole energized cells: 65 pmol CIP/ODU600
  CIP accumulation, % of wild-type: 63 % of wild-type
Strain 2′-AG112, energized
  Accumulation of CIP into whole energized cells: 26 pmol CIP/ODU600
  CIP accumulation, % of wild-type: 25 % of wild-type
Strain 3*-AG100, energized
  Accumulation of CIP into whole energized cells: 16 pmol CIP/ODU600
  CIP accumulation, % of wild-type: 16 % of wild-type
Strain 3′-AG112, energized
  Accumulation of CIP into whole energized cells: 26 pmol CIP/ODU600
  CIP accumulation, % of wild-type: 25 % of wild-type
Strain 4*-AG100, energized
  Accumulation of CIP into whole energized cells: 20 pmol CIP/ODU600
  CIP accumulation, % of wild-type: 19 % of wild-type
Strain AG100, de-energized with 200 μM CCCP
  Accumulation of [14C-]ciprofloxacin after 200 μM CCCP: 201 pmol CIP/ODU600
Strain AG100, energized
  Accumulation of CIP into whole energized cells: 103 pmol CIP/ODU600
Strain AG112, de-energized with CCCP
  Accumulation of [14C-]ciprofloxacin after CCCP: 226 pmol CIP/ODU600
Strain AG112, energized
  Accumulation of CIP into whole energized cells: 56 pmol CIP/ODU600
  CIP accumulation, % of wild-type: 54 % of wild-type

Source: US8012711B2, “Methods of screening for compounds that reduce microbial resistance to fluoroquinolones” (priority 1999, dated 2011)
